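A cell-based FRET test of anthrax lethal toxin entry, tracked through the 460 nm emission signal; the cell line is not named here. Each compound was tested as a concentration series from about 0.0005 to 40 µM. The number is the fitted AC50 of the 460 nm signal alone; lower values mean a more potent effect. A falling signal goes with compounds filed as inhibitors or cytotoxic, a rising one with activators or fluorescent compounds (inferred from the filed classes).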

Values are in µM. Common to all entries: measured here: 460 nm channel. Part of the compounds only, not a random draw; the main read-out is not listed here. Potencies fitted to partial, single-point or poorly fitting curves are rough. The first word of each remark tells which way the curve ran; it can be opposite to the aim of the assay.

Compound,AC50 (µM),remark
CN1CCN(c2ncc3nc(-c4cn(C)c5ccccc45)c(=O)n(CCc4ccccc4)c3n2)CC1,0.5012,"rising, full curve"
O=C1OC(C2=CCCCC2)=NC12CC2,5.012,"rising, single point"
O=C(NC1CCCCCCC1)C1CCN(S(=O)(=O)N2CCCC2)CC1,5.012,"falling, full curve"
Cc1ccc2[nH]c(=O)c(C(c3nnnn3C(C)(C)C)N(Cc3ccco3)CC3CCCO3)cc2c1 (stereo not drawn),7.943,"falling, partial curve"
CCN1CCn2c1nc(N1CCOCC1)nc2=O,0.05012,"falling, full curve, poor fit"
CCOC(=O)c1[nH]c2c(c1C)C(=O)CC(c1ccc(F)cc1)C2 (stereo not drawn),1.995,"falling, full curve"
Cc1cc2nn(-c3ccccc3)nc2cc1NC(=O)c1cccs1,10,"falling, partial curve"
CCC1(C)N(O)C(C)(C)C(c2ccc(OC)cc2)=[N+]1[O-] (stereo not drawn),7.943,"rising, partial curve"
COc1ccc(-n2c(=O)cnc3cnc(Nc4ccccc4)nc32)cc1,12.59,"rising, single point"
OC(COc1ccc(Cl)c2ccccc12)CN1CCN(c2ccccn2)CC1 (stereo not drawn),12.59,"falling, partial curve"
COc1ccc(COC(=O)N/N=C2/C[C@@H](O)[C@@H](O)[C@@H]3[C@H]4C(=O)N(c5ccc(F)cc5F)C(=O)[C@@H]4CC[C@H]23)cc1,1,"rising, single point"
CC(C)(C)c1cc(/C=C(\C#N)C(N)=S)cc(C(C)(C)C)c1O,10,"falling, partial curve"
COc1ccc2cccc(N3CCN(CCNC(=O)c4ccc(F)cc4)CC3)c2c1,12.59,"falling, partial curve"
CC(C)(C)c1ccccc1OCC(=O)Nc1ncn[nH]1,12.59,"falling, partial curve"
O=c1c(-c2ccccc2)nc2cnc(N3CCOCC3)nc2n1CCc1ccccc1,7.943,"rising, partial curve"
CC(NC(=O)c1ccncc1)C(c1cccs1)N1CCOCC1 (stereo not drawn),0.0631,"rising, full curve, poor fit"
O=c1cc(-c2cccc(O)c2)oc2c(O)c(O)ccc12,12.59,"falling, partial curve"
Cc1ccc(SCc2[nH]nc3c2C(c2cccnc2)C(C#N)=C(N)O3)cc1 (stereo not drawn),12.59,"rising, single point"
CCCCc1c(C)c2ccc(OC)c(/C(C)=N\O)c2oc1=O,12.59,"falling, single point"
COCCCNC(=O)c1ccccc1SC,10,"falling, partial curve, poor fit"
Cc1ccc(-c2nc(-c3ccccn3)no2)cc1Cl,3.162,"falling, partial curve"
Cc1cc(Cl)ccc1OCCCC(=O)NC1CCN(C)CC1,0.1259,"falling, full curve"
COc1ccc(C2(C(=O)NCCN3CCOCC3)CCOCC2)cc1,5.012,"falling, single point"
CCOc1ccc(N(CC(=O)N2CC=C(c3ccccc3)CC2)S(=O)(=O)c2c(C)noc2C)cc1,10,"falling, partial curve"
C=CCn1c(=N)n(CC(O)c2ccco2)c2ccccc21 (stereo not drawn),0.1585,"falling, full curve, poor fit"
CCc1ccc(-c2nc(CN3CCCC(C(=O)NCCc4ccc(OC)c(OC)c4)C3)c(C)o2)cc1 (stereo not drawn),0.003981,"falling, full curve, poor fit"
COc1cc2c(cc1OC)-c1cc(=Nc3c(C)cc(C)cc3C)n(C)c(=O)n1CC2,12.59,"falling, partial curve"
C=C(C)COc1ccc(-c2nc(N)ncc2Oc2ccccc2OC)c(O)c1,12.59,"falling, partial curve"
C=CCn1c(=O)/c(=C/c2ccc(F)cc2)s/c1=C(\C#N)c1nnc2n1CCCCC2,3.162,"rising, full curve"
Cc1cc(C)c(NC(=O)CN2C(=O)NC3(CCCCC3)C2=O)c(Cl)c1,0.1,"falling, full curve, poor fit"
COc1ccc(C(=O)c2cn[nH]c2-c2cc(Cl)ccc2O)cc1,10,"falling, partial curve"
C/C=C(\C)C(=O)O[C@@H]1C(C)=C2[C@H]([C@@H]1OC(=O)CCCCCCC)[C@@](C)(OC(C)=O)C[C@@H](OC(=O)CCC)[C@@]1(O)[C@H]2OC(=O)[C@]1(C)O,0.05012,"falling, full curve"
COc1cccc(NC(=O)c2nnn(Cc3ccc(Br)cc3F)c2N)c1,15.85,"falling, partial curve"
CC(C)CCNC(=O)Cn1c(=O)oc2cc(S(=O)(=O)N3CCc4ccccc43)ccc21,5.012,"falling, partial curve"
O=c1c2ccccc2nc(SCc2cn3ccsc3n2)n1-c1ccccc1,10,"rising, partial curve"
COC(=O)c1ccc(OC)c(CSc2nnc(COc3ccc(Cl)cc3)o2)c1,31.62,"falling, partial curve"
CN1c2ccccc2N(C)C1c1ccc2c(c1)OCO2,0.3162,"falling, full curve"
O=C1c2ccccc2-c2c1nc1c([n+]2[O-])CCCC1,1.995,"falling, partial curve"

For reference, 2 entries once more:

Result for CCOC(=O)c1[nH]c2c(c1C)C(=O)CC(c1ccc(F)cc1)C2 (stereo not drawn) was AC50 1.995 µM (falling, full curve).
Result for O=C1c2ccccc2-c2c1nc1c([n+]2[O-])CCCC1 was AC50 1.995 µM (falling, partial curve).

The results are deposited in PubChem (AID912; NCATS, 2007).